Test results published in patent publication US20190276557A1 (APROGEN KIC, published 2019).
These are yes or no findings as the source states them, for the method shown. For some of these results: In cells and extracts the contact can be indirect. Some results given as binding are weak or reduced against the parent protein; the word gives no strength.

Amino acid sequences for entries named in this document (tags omitted). A change or cut given only in a name is not applied to a line headed by its entry.
UniProt O43570: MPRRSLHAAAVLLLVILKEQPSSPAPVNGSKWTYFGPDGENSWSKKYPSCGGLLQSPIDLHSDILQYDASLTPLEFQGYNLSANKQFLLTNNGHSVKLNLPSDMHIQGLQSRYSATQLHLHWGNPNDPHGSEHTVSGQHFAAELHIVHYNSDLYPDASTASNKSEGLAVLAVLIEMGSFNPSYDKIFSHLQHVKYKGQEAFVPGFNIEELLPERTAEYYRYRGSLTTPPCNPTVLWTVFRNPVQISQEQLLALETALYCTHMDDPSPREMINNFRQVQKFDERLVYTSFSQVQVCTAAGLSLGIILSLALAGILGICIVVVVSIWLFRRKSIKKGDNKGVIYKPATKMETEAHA

Experiments:
[1] = biological target: recombinant protein carbonic anhydrase 12 (R&D Systems) (Homo sapiens (Human)) (UniProt O43570); assay: sandwich ELISA on recombinant CA12
[2] = biological target: recombinant protein carbonic anhydrase 12 (R&D Systems) (Homo sapiens (Human)) (UniProt O43570); assay: Western blot of boiled recombinant CA12
[3] = biological target: recombinant protein carbonic anhydrase 12 (R&D Systems) (Homo sapiens (Human)) (UniProt O43570); assay: ELISA on coated recombinant CA12
[4] = biological target: carbonic anhydrase 12 isoform 1 isolated from A549 cell lysate (human) (UniProt O43570); assay: antibody affinity column on A549 lysate, LC-MS/MS of the eluted antigen
[5] = biological target: recombinant protein carbonic anhydrase 12 (R&D Systems) (Homo sapiens (Human)) (UniProt O43570); assay: ELISA on coated recombinant CA12 (100 ng/well)
[6] = biological target: recombinant protein carbonic anhydrase 12 (R&D Systems) (Homo sapiens (Human)) (UniProt O43570); assay: Western blot of recombinant CA12
[7] = biological target: carbonic anhydrase 12 (CA-XII) on the surface of human tumour cell lines (human) (UniProt O43570); assay: flow cytometry on MDAMB-231 cells

Measured: binding

B1: 27B6 monoclonal antibody (mouse, hybridoma KCLRF-BP-00280) (antibody, mouse IgG1, V domains shown)
VH: QVQLQQSGPQLVWPGASVKISCNTSGYSFTNYWIHWVKQRPGQGLEWIGMIDPSDSETRLNQKFKDKTTLTVDRSSSTAYMQVSSSTSEDSAVYYCTRGIRGGYYAMDYWGQGTSVTVSS
VL: DIQMTQTTSSLSASLGDRVTISCRASQDISNYLNWYQQKPEGTVKLLIYYTSRLHSGVPSRFSGSGSGTDYSLTISNLEQEDIATYFCQQGDTLPRTFGEGTKLEIR
not listed: [7]
binds: all other assays above

B2: DNP004 humanized antibody (antibody, V domains shown)
VH: EVQLVESGGGLVQPGGSLRLSCAASGYSYTDYNIYWVRQAPGKGLEWVGYIDPANGDTTYNQKFKGRATISVDKSKNTAYLQMNSLRAEDTAVYYCSRPIYYGAYWYFDVWGQGTLVTVSS
VL: DIQMTQSPSSLSASVGDRVTITCRASSSVTYMHWYQQKPGKAPKPWIYGTSRLVSGVPSRFSGSGSGTDFTLTISSLQPEDFATYYCQQWSSNPLTFGQGTKVEIK
binds: [7]
